Crude mass and isolated mass data for one substance are collected here from US11759509B2 (Sumitomo Pharma Co., Ltd., priority 2013, dated 2023).

A short description of this data set: general procedure: Fmoc solid-phase peptide synthesis; Fmoc-Leu-Alko-resin; HBTU/DIPEA. The conditions noted are these: whole synthesis, scale 0.2 mmol.

“H-Cys(Npys)-Arg-Met-Phe-Pro-Asn-Ala-Pro-Tyr-Leu-OH” had a crude mass of 217 mg and an isolated mass of 53 mg.
